# Among all 360,000 compounds or so, about 7,500 (2.1%) were called active. Inconclusive means that the source gave no clear call. Such entries were picked first, then a sample of the others. Calls come from the whole dose curve; as a rule, active = well fitted inhibition curve with a large enough effect; inconclusive = small, poorly fitted or top-dose-only effect, or effect the other way; inactive = flat fitted curve, though single readings scatter. A potency beside an inconclusive call is a rough fit, not a confirmed value.
# Assay: Nrf2 qHTS screen for inhibitors; note: nearly all actives have a fitted effect of over 60% in size
# Settings: A549 ARE-Fluc reporter, luciferase luminescence, 18-24 h; series mostly up to 46 µM
# Outline: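 Quantitative HTS in A549 cells stably bearing an antioxidant response element-firefly luciferase construct. Inhibition of Nrf2-driven transcription was scored by luminescence after 18-24 h of compound exposure at 37 °C.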
# Potency is the fitted concentration of half-maximal effect.
row,Structure (SMILES),Potency
1,CCOC(=O)Cn1cc(/C=N/N2C(=O)C3C4C=CC(C4)C3C2=O)c2ccccc21 (configuration not stated),inactive
2,CCN(CC)CCn1c(OC)cc(=O)[nH]c1=O,"inconclusive: 3.26 µM [activator, full curve]"
3,CCOc1ccc(C(=O)OCc2cc(=O)n3nc(C(C)C)sc3n2)cc1,"inconclusive: 16.4 µM [falling, single point]"
4,Clc1cccc2sc(-c3nnc(-c4ccccc4)o3)c(Cl)c12,"inconclusive: 9.2 µM [activator, partial curve]"
5,CC(CCc1ccc(O)cc1)NC(c1ccccc1)c1ccc(Cl)cc1 (configuration not stated),active: 23.1 µM
6,CC(=O)N(\C=C/C=C/C=C1\Sc2ccccc2C1=O)c1ccccc1,inactive
7,COC(=O)c1ccccc1NC(=O)C12CC3CC(C1)CC(n1cnc(Cl)n1)(C3)C2,"inconclusive: 0.82 µM [falling, full curve, poor fit]"
8,O=C(CSc1nnc(Nc2ccccc2)s1)NC1CCS(=O)(=O)C1 (configuration not stated),"inconclusive: 29.1 µM [activator, single point]"
9,CC1=C(C(=O)OC2CCCC2)C(c2cccc(Cl)c2Cl)CC(=O)N1 (configuration not stated),"inconclusive: 16.4 µM [falling, single point]"
10,S=c1[nH]nc(-c2ccco2)n1-c1ccc(Cl)cc1,inactive
11,O=C(COn1nnc2ccc(C(F)(F)F)cc21)Nc1nnc(-c2ccccc2)o1,"inconclusive: 29.1 µM [falling, single point]"
12,CCOC(=O)C1=C(C)N(C)C(=O)NC1c1cccc2ccccc12 (configuration not stated),"inconclusive: 9.2 µM [falling, partial curve, poor fit]"
13,COc1ccc(-c2nnc(SCc3nnc(-c4ccc(Cl)cc4)o3)n2-c2ccccc2)cc1,"inconclusive: 29.1 µM [falling, single point]"
14,CCOc1ccc(N(CC(=O)Nc2cc(Cl)ccc2C)S(C)(=O)=O)cc1,"inconclusive: 2.06 µM [falling, single point]"
15,O=C(c1cccc([N+](=O)[O-])c1)N1CCN(c2ccc(Cl)cc2)CC1,"inconclusive: 10.3 µM [falling, partial curve, poor fit]"
16,Cc1ccccc1OCC(=O)Nc1nnc(S(=O)(=O)N(C)c2ccccc2)s1,"inconclusive: 11.6 µM [falling, partial curve, poor fit]"
17,NC(=O)C1C2CCC(C2)C1C(N)=O (configuration not stated),"inconclusive: 25.9 µM [activator, single point]"
18,Cc1ccc(C(=O)Nc2nccs2)cc1,"inconclusive: 10.3 µM [activator, partial curve]"
19,CC(Oc1ccc2ccccc2c1)C(=O)NNC(=S)NC(=O)c1ccco1 (configuration not stated),"inconclusive: 23.1 µM [falling, single point]"
20,CC1=C(C(=O)OCc2ccccc2)C(c2cccnc2)n2nnnc2N1 (configuration not stated),"inconclusive: 29.1 µM [falling, single point]"
21,COc1cccc(OCc2cc(C3Nc4ccccc4C(=O)N3Cc3ccco3)ccc2OC)c1 (configuration not stated),inactive

row,Structure (SMILES),Potency
1,CC(=O)c1c(C)[nH]c(C(=O)CN2C(=O)NC3(CCCCC3C)C2=O)c1C (configuration not stated),"inconclusive: 11.6 µM [falling, partial curve, poor fit]"
2,CCCc1ccc(C(=O)NNc2cccc(C)c2)cc1,"inconclusive: 14.6 µM [activator, single point]"
3,O=C(OCC(=O)N1CCc2ccccc21)[C@@H]1CC(O)CN1S(=O)(=O)c1ccc(Cl)cc1 (some centres not stated),inactive
4,OC(c1cc(-c2ccc(C(F)(F)F)cc2)nc(C(F)(F)F)c1)C1CCCCN1 (configuration not stated),inactive
5,Cc1ccc(-c2nn(-c3ccccc3)cc2CN(C)C(=O)CCC(=O)O)cc1C,"inconclusive: 10.3 µM [falling, partial curve, poor fit]"
6,COc1cccc(CN2CC(C(=O)N(C)Cc3ccc(C)cc3)CCC2=O)c1 (configuration not stated),"inconclusive: 5.17 µM [activator, full curve]"
7,Cc1ccc(/C=N/OC(=O)c2nn(C)cc2Cl)cc1,"inconclusive: 1.64 µM [activator, partial curve, poor fit]"
8,O=C(O)c1ccccc1OCc1nc2ccccc2s1,"inconclusive: 13 µM [activator, partial curve, poor fit]"
9,Clc1cccc(OCCOCCN2CCNCC2)c1Cl,"inconclusive: 18.4 µM [falling, single point]"
10,CC(C)(C)Nc1nc(SCc2ccccc2)nc(N2CCOCC2)n1,"inconclusive: 20.6 µM [falling, single point]"
11,Cc1cccc(N2CCN(C(=O)c3ccc4c(c3)CCN4S(=O)(=O)c3ccccc3)CC2)c1C,"inconclusive: 16.4 µM [falling, single point]"
12,CC(C)(C)c1cnnn1-c1ccc(C=O)cc1,"inconclusive: 3.66 µM [activator, partial curve, poor fit]"
13,COC(=O)c1ccccc1-n1cccc1C(=O)NP(=O)(N1CCOCC1)N1CCOCC1,"inconclusive: 5.17 µM [activator, partial curve]"
14,CCOc1cccc(/C=N/NC(=S)Nc2cc(S(=O)(=O)N3CCOCC3)ccc2N2CCOCC2)c1O,"inconclusive: 29.1 µM [falling, single point]"
15,COc1ccc(-c2nc(SCc3ccc(C#N)cc3)[nH]c(=O)c2C#N)cc1,"inconclusive: 32.6 µM [falling, single point]"
16,NC(=O)c1ccc2c(=O)c(O)c(-c3cc(Cl)c(N)c(Cl)c3)[nH]c2c1,inactive
17,CCOC(=O)N1CCC(NC(=O)CSCc2nc(-c3ccc(C)cc3)oc2C)CC1,"inconclusive: 25.9 µM [falling, partial curve]"
18,O=C(NNC(=O)C1CCN(S(=O)(=O)c2c(Cl)cccc2Cl)CC1)c1ccccc1O,"inconclusive: 14.6 µM [falling, partial curve, poor fit]"
19,CCN=C1NN=C(c2ccc(C)cc2)CS1,"inconclusive: 1.84 µM [activator, full curve, poor fit]"
20,Cc1ccc(S(=O)(=O)c2cn(CC(=O)Nc3ccccc3)c3cc4c(cc3c2=O)OCO4)cc1,inactive
21,Cc1noc(/C=C/N(C)C)c1S(=O)(=O)N1CCCC(C(=O)NCc2ccccc2Cl)C1 (configuration not stated),"inconclusive: 0.82 µM [activator, full curve, poor fit]"

# An excerpt from above in order of molecular weight, falling.
row,Structure (SMILES),Potency
20,Cc1ccc(S(=O)(=O)c2cn(CC(=O)Nc3ccccc3)c3cc4c(cc3c2=O)OCO4)cc1,inactive
18,O=C(NNC(=O)C1CCN(S(=O)(=O)c2c(Cl)cccc2Cl)CC1)c1ccccc1O,"inconclusive: 14.6 µM [falling, partial curve, poor fit]"
3,O=C(OCC(=O)N1CCc2ccccc21)[C@@H]1CC(O)CN1S(=O)(=O)c1ccc(Cl)cc1 (some centres not stated),inactive
13,COC(=O)c1ccccc1-n1cccc1C(=O)NP(=O)(N1CCOCC1)N1CCOCC1,"inconclusive: 5.17 µM [activator, partial curve]"
4,OC(c1cc(-c2ccc(C(F)(F)F)cc2)nc(C(F)(F)F)c1)C1CCCCN1 (configuration not stated),inactive
5,Cc1ccc(-c2nn(-c3ccccc3)cc2CN(C)C(=O)CCC(=O)O)cc1C,"inconclusive: 10.3 µM [falling, partial curve, poor fit]"
15,COc1ccc(-c2nc(SCc3ccc(C#N)cc3)[nH]c(=O)c2C#N)cc1,"inconclusive: 32.6 µM [falling, single point]"
8,O=C(O)c1ccccc1OCc1nc2ccccc2s1,"inconclusive: 13 µM [activator, partial curve, poor fit]"
7,Cc1ccc(/C=N/OC(=O)c2nn(C)cc2Cl)cc1,"inconclusive: 1.64 µM [activator, partial curve, poor fit]"
2,CCCc1ccc(C(=O)NNc2cccc(C)c2)cc1,"inconclusive: 14.6 µM [activator, single point]"
19,CCN=C1NN=C(c2ccc(C)cc2)CS1,"inconclusive: 1.84 µM [activator, full curve, poor fit]"
12,CC(C)(C)c1cnnn1-c1ccc(C=O)cc1,"inconclusive: 3.66 µM [activator, partial curve, poor fit]"
